Where two headings read alike, the source gives them in different places. This is one part of the list.
Test system: T1, CTL2-GFP (C. trachomatis L2/434/Bu, GFP-expressing)
T1 construct: L2/434/Bu, GFP-expressing
Design: species or system HeLa; Intracellular C. trachomatis growth in HeLa cells, bulk GFP fluorescence relative to DMSO
Conditions: bulk GFP, single well, 28.5 h, 10 µM, inhibitor

SMILES | % of control remaining | % of control remaining (Bulk GFP fluorescence)
O=C(Nc1ccc(N2CCN(C(=O)c3cccs3)CC2)cc1)c1ccc(-c2cc3ccccc3oc2=O)cc1 [CBK267340] | 139.109% | 
CCOc1cc(Br)ccc1S(=O)(=O)NCc1ccc2c(c1)OCO2 [CBK268813] | 153.017% | 
Cc1nonc1CN(C)C(=O)c1ccc2c(c1)c(C)c(C)n2C [CBK281442] | 119.956% | 
COc1ccc(C(=O)O)cc1CN1CCOCC1 [CBK287029] | 122.184% | 
COCC(C)N(C)S(=O)(=O)c1ccc(Cl)nc1 (centres unmarked) [CBK304813] | 111.453% | 
CC(=O)N1CC2(CCN(C(=O)C(C)(C)C)CC2)Nc2ccccc21 [CBK284448] | 72.5789% | 
Cc1ccc(Nc2ncc3c(n2)CCCC3=O)cc1 [CBK288143] | 123.423% | 
O=[N+]([O-])c1cccc(CNc2nccnc2-c2ccccc2F)c1 [CBK037416] | 145.795% | 
N#Cc1cccc(OCC(=O)NCC2(N3CCOCC3)CCSC2)c1 (centres unmarked) [CBK305685] | 125.408% | 
COc1ccc(CN2CC[C@H]3NC(=O)CNC(=O)C4(C/C=C/C[C@H]3C2)CCN(C(C)=O)CC4)cc1 [CBK292013] | 137.228% | 
Cc1ccc(-c2nc3ncc(C#N)c(N)n3n2)cc1 [CBK288153] | 107.147% | 
CN(C1CCCCC1)C1CCN(CCc2ccccc2)CC1 [CBK261918] | 111.136% | 
COc1cc(-c2nccnc2NCCCO)cc(OC)c1OC [CBK037274] | 105.455% | 
CC(C)CCN1CCC2CN(CCCC(c3ccc(F)cc3)c3ccc(F)cc3)CCN2C1=O (centres unmarked) [CBK024898C] | 138.453% | 
O=C(NC1CCCCC1)C1CCC1 [CBK011511] | 115.007% | 
O=S(=O)(N1CCNCC1)N1CCOCC1 [CBK267467] | 144.202% | 
CCn1c(SCC(=O)NC2CC2)nc2ccccc21 [CBK305864] | 104.715% | 
COCC(=O)NC1CCN(CC2(c3ccc(F)cc3)CCCC2)CC1 [CBK285387] | 127.386% | 
O=C1COc2ccccc2CCCC[C@@H]2CN(C(=O)Cn3ccc(=O)[nH]c3=O)CC[C@H]2N1 [CBK292048] | 171.615% | 
Cn1c(=O)c2c(ncn2Cc2ccccc2)n(C)c1=O [CBK133402] | 46.6627% | 
CCC(=O)N1CCC(NCc2ccc(OCC(N)=O)cc2)C(C)C1 (centres unmarked) [CBK303989] | 164.994% | 
Nc1ccc(-c2ccc3c(c2)OCCCO3)c2ccccc12 [CBK084325] | 96.4018% | 
CC(C)(C)OC(=O)N1CCN(c2nccnc2OCCO)CC1 [CBK001869] | 90.3654% | 
O=C(C1CCCCC1)N1CC[C@H](c2nnc(-c3cccnc3)o2)C1 [CBK289412] | 104.383% | 
CCCCN1CCN(S(=O)(=O)c2ccc(Br)cc2)CC1 [CBK144055] | 110.392% | 
O=C(c1cncnc1)N1CCC(Cc2ccccc2)CC1 [CBK200212] | 122.278% | 
CC(C)C(=O)N1CCCC2(CC1)CN(C)Cc1ccccc1O2 (centres unmarked) [CBK285132] | 118.319% | 

Arranged by length of the SMILES (smallest number first): some entries from above
SMILES | % of control remaining | % of control remaining (Bulk GFP fluorescence)
COCC(C)N(C)S(=O)(=O)c1ccc(Cl)nc1 (centres unmarked) [CBK304813] | 111.453% | 
Cc1ccc(-c2nc3ncc(C#N)c(N)n3n2)cc1 [CBK288153] | 107.147% | 
CCC(=O)N1CCC(NCc2ccc(OCC(N)=O)cc2)C(C)C1 (centres unmarked) [CBK303989] | 164.994% | 

Following part:

SMILES | % of control remaining | % of control remaining (Bulk GFP fluorescence)
Cc1ccc(-c2nccnc2OCc2ccco2)cc1C [CBK106863] | 249.952% | 
O=C(CSc1nc2sc3c(c2c(=O)n1CCc1ccccc1)CCCC3)Nc1ccccc1 [CBK267281] | 100.729% | 
O=C(O)c1n[nH]c2c1COc1ccccc1-2 [CBK266356] | 108.977% | 
c1ccc(CN2CCC(NCc3ccco3)C(c3ccccc3)C2)cc1 (centres unmarked) [CBK286167] | 114.847% | 
CCOc1ccc(S(=O)(=O)N2CCN(S(=O)(=O)c3cccc([N+](=O)[O-])c3)CC2)cc1 [CBK266341] | 145.316% | 
CCc1nc2c(OCCOc3ccccc3)cccn2c1N(C)C(=O)COc1ccccc1 [CBK147355] | 118.842% | 
COc1ccc2c(C)nc(NC3=NC(c4ccccc4)CC(=O)N3)nc2c1 (centres unmarked) [CBK270230] | 167.138% | 
CC(C)c1ccc2oc(-c3ccc(NC(=S)NC(=O)c4cncc(Br)c4)cc3)nc2c1 [CBK264913] | 137.352% | 
CCOC(=O)c1cc(NC(=O)CSc2nc3ccccc3[nH]2)ccc1Cl [CBK266557] | 145.041% | 
COC(=O)c1ccc(-c2cc3ccccc3o2)nc1 [CBK149228T] |  | 129.117%
O=[N+]([O-])c1ccc(OC(CNS(=O)(=O)c2ccc(Cl)cc2)c2ccccc2)cc1 (centres unmarked) [CBK262817] | 79.924% | 
COc1ccccc1C(=O)O/N=C1/CCCc2c1ccc(OC)c2[N+](=O)[O-] [CBK263555] | 63.5967% | 
CCOc1cc2c(cc1NC(=O)CN(c1cccc(Cl)c1)S(C)(=O)=O)OC(C)C2 (centres unmarked) [CBK248179] | 147.183% | 
CC(Oc1ccccc1F)C(=O)N1CCCCC1CN(C)C (centres unmarked) [CBK281544] | 137.853% | 
COCC1(C(=O)N2CC(=O)N(c3ccccc3C#N)CC2C)CCC1 (centres unmarked) [CBK307159] | 134.703% | 
O=C(N[C@@H]1CNCCC[C@H]1O)c1ccc(OCCN2CCOCC2)cc1 [CBK289065] | 121.292% | 
CC(=O)NC1CCN(c2nc(C(C)(C)C)nc3c2cnn3C)CC1 [CBK307431] | 119.815% | 
CC1=CC(C)C2C(=O)N(c3ccc(C(=O)O)cc3)C(=O)C2C1 (centres unmarked) [CBK286923] | 119.333% | 
CC(=O)Nc1ccc(CNc2ncccc2OC(F)F)cc1 [CBK306016] | 127.5% | 
C#C[C@H]1C[N@@]2CC[C@H]1C[C@@H]2CNC(=O)Nc1ccc(C(C)=O)cc1 [CBK288755] | 115.16% | 
O=c1[nH]ccn1CCNc1ccc(-c2ccccc2Oc2ccccc2)cn1 [CBK037665] | 87.9916% | 
CC(=O)N1CCC2(CC1)CC(O)c1cc(C)c(C)cc1O2 (centres unmarked) [CBK282826] | 96.0905% | 
CSc1cc(C)c(O)c(CO)c1 [CBK020687] | 128.727% | 
COc1ccc(-c2nnc(SCC(=O)O)n2-c2cccc(C(F)(F)F)c2)cc1OC [CBK268347] | 142.778% | 
Cc1ccc(NC(=O)c2ccncc2)c(Br)c1 [CBK058282] | 133.495% | 
CN(C)c1ncc(-c2ccc(O)cc2)cc1C(=O)NCc1ccc(F)cc1 [CBK106396] | 100% | 
CCOc1ccccc1Nc1c([N+](=O)[O-])nn(-c2ccc(OC)cc2)[n+]1[O-] [CBK268411] | 123.449% | 

SMILES | % of control remaining | % of control remaining (Bulk GFP fluorescence)
CC(C(=O)N(CCC#N)Cc1cccnc1)n1cnc2ccccc21 (centres unmarked) [CBK304127] | 114.124% | 
COc1cc(S(=O)(=O)N2CCC(C(N)=O)CC2)ccc1Br [CBK268766] | 147.041% | 
Fc1cccc(-c2c[nH]nc2C2CCOCC2)c1 [CBK283465] | 104.206% | 
Cc1cc(C)c(OCCNC(=O)c2ccccc2Sc2ccccc2C#N)c(C)c1 [CBK266048] | 88.8791% | 
Cc1nc(-c2ccccc2)sc1C(=O)C1=C(O)C(=O)N(CCCN2CCOCC2)C1c1cccs1 (centres unmarked) [CBK266601] | 79.6304% | 
CCOC(=O)c1cnc2ccc(F)cc2c1NCCN(C)C [CBK265751] | 138.65% | 
CSc1nc(C)cc(OCC(=O)Nc2ccc(Cl)cc2)n1 [CBK267525] | 163.488% | 
CC1(c2ccco2)NC(=O)N(Cc2ncc(-c3cccs3)o2)C1=O (centres unmarked) [CBK305398] | 143.605% | 
CNC(=O)NC(=O)C1CCN(CCc2cccs2)CC1 [CBK034960] | 137.471% | 
COc1ccc(CC(=O)Nc2ccc(S(=O)(=O)NC(C)C)cc2)cc1 [CBK267833] | 90.7478% | 
COc1cccc(C(=O)Nc2cc3c(cc2C(O)c2ccccc2Cl)OCCO3)c1 (centres unmarked) [CBK268004] | 116.886% | 
Cc1cc2nc(COC(=O)N3CCOCC3)[nH]c2cc1C [CBK200144] | 72.3354% | 
CC(=O)N1CCC(C(=O)N2CCC(C(=O)NC(c3ccccn3)c3cccs3)CC2)CC1 (centres unmarked) [CBK060118] | 109.408% | 
CC(C)NC(=O)[C@H]1CN2CCC1C[C@@H]2Cn1cc(C2(O)CCCCC2)nn1 (some centres unmarked) [CBK288732] | 132.895% | 
O=C(O)c1cc2ncc(-c3n[nH]cc3[N+](=O)[O-])cn2n1 [CBK269072] | 137.852% | 
O=C1CN(C(=O)NCc2ccc(Cl)cc2)CCN1 [CBK155867] | 139.513% | 
O=C(Nc1cnc2ccccc2c1)OCCc1cccnc1 [CBK200126] | 68.015% | 
O=C(Nc1ccccn1)C1CCCN1c1nc(O)cc(C(F)(F)F)n1 (centres unmarked) [CBK004254] | 122.882% | 
NC(=O)c1c(NC(=O)COc2ccc(Cl)cc2)sc2c1CCC2 [CBK262163] | 102.92% | 
O=C(NCc1ccccn1)c1cnn(-c2ccc(Cl)cc2)c1C(F)(F)F [CBK116637T] | 90.605% | 
COCCNc1nc(-c2ccccc2CO)ccc1C(=O)NCCNC(C)=O [CBK076548] | 108.598% | 
O=C(Cc1c[nH]c(=O)[nH]c1=O)N1CCCCC1c1nc2cc(F)ccc2[nH]1 (centres unmarked) [CBK291108] | 141.341% | 
FC(F)(F)c1nc2ccccc2nc1OCCN1CCNCC1 [CBK113302] | 98.9194% | 
COc1ccc(-c2ccc(CN(Cc3ccc4c(c3)OCO4)CC(C)O)cc2)cc1 (centres unmarked) [CBK286470] | 92.3062% | 
CN(C)c1ccc(NC(=O)CN2C(=O)[C@H]3CCCN3c3ncccc32)cc1 [CBK286202] | 144.31% | 
COc1ccc(S(=O)(=O)N(CC(=O)Nc2cccnc2)c2ccc(F)cc2)cc1 [CBK268445] | 120.453% | 

A stretch of the results above:
SMILES | % of control remaining | % of control remaining (Bulk GFP fluorescence)
COc1cccc(C(=O)Nc2cc3c(cc2C(O)c2ccccc2Cl)OCCO3)c1 (centres unmarked) [CBK268004] | 116.886% | 
Cc1cc2nc(COC(=O)N3CCOCC3)[nH]c2cc1C [CBK200144] | 72.3354% | 

Reference: article PMC12040169 (PLOS Biology, 2025)
